Test [1] deals with neuropilin-1 (human (endogenous in patient-derived GBM cells and GBM specimens)) (UniProt O14786). As to the kind of experiment: co-IP; 500 μg protein from GBM cells (treated with or without rSema3A or rVEGF165) or patient GBM specimens, Pierce IP lysis buffer; incubated overnight with 2 μg NRP1 or TGF-βR1 Ab on protein A/G beads; immunoblot.
The target is the same in test [2]. Nature of the test: proximity ligation; GBM cells treated with rSema3A or vehicle for 10 minutes, fixed with 4% paraformaldehyde; anti-NRP1 (mouse) and anti-TGF-βR1 (rabbit) Abs, Duolink PLA PLUS and MINUS probes; red dots counted in 5 random fields.

Protein sequences, listed by entry. Tags and fused reporters are not part of them. Residues count along the entry.
UniProt O14786, residues 22-923: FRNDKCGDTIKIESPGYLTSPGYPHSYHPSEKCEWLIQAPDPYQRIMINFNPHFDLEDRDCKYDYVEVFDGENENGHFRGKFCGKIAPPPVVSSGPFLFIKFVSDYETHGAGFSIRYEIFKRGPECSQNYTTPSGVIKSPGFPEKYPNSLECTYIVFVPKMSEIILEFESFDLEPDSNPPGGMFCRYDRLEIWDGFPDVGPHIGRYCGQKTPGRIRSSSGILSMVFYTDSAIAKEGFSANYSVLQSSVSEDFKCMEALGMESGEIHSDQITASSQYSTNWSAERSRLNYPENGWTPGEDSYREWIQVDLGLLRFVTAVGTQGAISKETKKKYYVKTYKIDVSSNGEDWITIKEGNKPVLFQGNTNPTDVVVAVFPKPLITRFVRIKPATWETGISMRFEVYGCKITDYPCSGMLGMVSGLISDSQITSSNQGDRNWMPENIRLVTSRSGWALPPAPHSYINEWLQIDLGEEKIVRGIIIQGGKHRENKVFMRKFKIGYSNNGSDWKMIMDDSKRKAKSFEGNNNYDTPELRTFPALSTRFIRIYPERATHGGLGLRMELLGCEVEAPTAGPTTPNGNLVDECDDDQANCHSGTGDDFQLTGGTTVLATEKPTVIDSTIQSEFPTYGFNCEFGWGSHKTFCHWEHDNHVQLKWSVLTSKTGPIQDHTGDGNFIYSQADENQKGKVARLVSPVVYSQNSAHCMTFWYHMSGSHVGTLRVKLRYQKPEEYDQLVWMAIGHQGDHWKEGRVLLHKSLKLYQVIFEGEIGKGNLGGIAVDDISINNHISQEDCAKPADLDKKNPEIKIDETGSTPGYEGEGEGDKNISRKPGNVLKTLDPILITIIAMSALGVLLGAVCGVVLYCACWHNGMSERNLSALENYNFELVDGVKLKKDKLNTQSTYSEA

Results are given in words; binding and its absence hold for the method and conditions named. Binding seen in cells or lysates may run through a third protein. Some entries that bind do so weakly or less than the wild type.

B1: TGF-β receptor 1 (receptor, UniProt P36897 34-503)
chain: LQCFCHLCTKDNFTCVTDGLCFVSVTETTDKVIHNSMCIAEIDLIPRDRPFVCAPSSKTGSVTTTYCCNQDHCNKIELPTTVKSSPGLGPVELAAVIAGPVCFVCISLMLMVYICHNRTVIHHRVPNEEDPSLDRPFISEGTTLKDLIYDMTTSGSGSGLPLLVQRTIARTIVLQESIGKGRFGEVWRGKWRGEEVAVKIFSSREERSWFREAEIYQTVMLRHENILGFIAADNKDNGTWTQLWLVSDYHEHGSLFDYLNRYTVTVEGMIKLALSTASGLAHLHMEIVGTQGKPAIAHRDLKSKNILVKKNGTCCIADLGLAVRHDSATDTIDIAPNHRVGTKRYMAPEVLDDSINMKHFESFKRADIYAMGLVFWEIARRCSIGGIHEDYQLPYYDLVPSDPSVEEMRKVVCEQKLRPNIPNRWQSCEALRVMAKIMRECWYANGAARLTALRIKKTLSQLSQQEGIKM
Regarding B1, the binding result in test [1] and in test [2] was “binds” in each case.

These data come from article PMC10721275.
